The test system of this assay is L1210 leukemia ip in BDF1 mice, survival T/C. Description: NCI In Vivo Anticancer Drug Screen. Data for tumor model L1210 Leukemia (intraperitoneal) in B6D2F1 (BDF1) mice. The settings on record: T/C endpoint: mean survival time, higher T/C = longer survival.
[1] abbreviates: dose: 400.0 mg/kg/injection, schedule: Q01DX001 (ip), vehicle: saline with Tween-80.
Setting [2] is: dose: 400.0 mg/kg/injection, schedule: Q04DX002 (ip), vehicle: saline.
[3] abbreviates: dose: 300.0 mg/kg/injection, schedule: Q01DX001 (ip), vehicle: saline.
The mark [4] stands for this setting: dose: 200.0 mg/kg/injection, schedule: Q04DX003 (ip), vehicle: saline with Tween-80.
[5] abbreviates: dose: 400.0 mg/kg/injection, schedule: Q04DX003 (ip), vehicle: saline with Tween-80.
Where [6] appears, read: dose: 100.0 mg/kg/injection, schedule: Q04DX002 (ip), vehicle: Klucel (hydroxypropylcellulose) (HPC).
Setting [7] is: dose: 200.0 mg/kg/injection, schedule: Q04DX002 (ip), vehicle: Klucel (hydroxypropylcellulose) (HPC).
The mark [8] stands for this setting: dose: 400.0 mg/kg/injection, schedule: Q04DX002 (ip), vehicle: Klucel (hydroxypropylcellulose) (HPC).
The mark [9] stands for this setting: dose: 200.0 mg/kg/injection, schedule: Q01DX001 (ip), vehicle: saline.
The mark [10] stands for this setting: dose: 400.0 mg/kg/injection, schedule: Q01DX001 (ip), vehicle: saline.
Setting [11] is: dose: 300.0 mg/kg/injection, schedule: Q01DX001 (ip), vehicle: other.

The list is a part of this screen's results and no random one: it gathers tests that were run many times, whatever their T/C, doses with no T/C, and many T/C values between a quarter and a half above the control. Further doses and runs are listed elsewhere. T/C gives the treated animals as a percentage of the vehicle group. Some doses have a count of surviving animals in place of a T/C: the source holds a T/C of zero for them, seemingly a mark for toxic or unscored doses. Some doses without a T/C left all or most animals alive at the check, yet need not have been tolerated: the source hardly ever lists a survival T/C far under the control, and the zero likely stands for such cases as well. Survivors were counted at the toxicity check, usually on the fifth day, unless a day is given; later deaths do not show. Schedules are NCI's codes, taken here to give the interval after Q, in days (D) or hours (H), and the number of doses after X. Some schedule codes hold Z or #, which are not explained here. Some entries were tested several times; their values stand side by side, smallest first. Some molecules as drawn cover several salts, stereoisomers or complexes of the source; a dose is that of the sample tested. Where survival is the endpoint, this PubChem deposit counts one and a half times the control or more as active, and values a quarter to a half above the control carry no call in these data; other NCI protocols may use other cut-offs.

With `C#CCN1C(=O)C(c2ccccc2)C2(CCN(C)CC2)C1=O` (stereo not drawn), the survivor count under setting [1] was 0 of 6.

With `O=C(O)c1c(F)ccc([N+](=O)[O-])c1F`, the survivor count under setting [2] is listed as 2 of 3.

`CC1CCC2N(C1)CC1C3(O)CC45OC6(O)C(O)CCC4(C)C6CCC5C3(O)CC(O)C1(O)C2(C)O` (stereo not drawn): the survivor count under setting [3] is 0 of 6.

In the case of `NC(N)=N/N=C/c1cccc2ccccc12`, the survivor count by setting is: (dose: 62.5 mg/kg/injection, schedule: Q01DX Z (ip), vehicle: saline) 0 of 6; (dose: 100.0 mg/kg/injection, schedule: Q04DX003 (ip), vehicle: saline sonified) 0 of 6; (dose: 125.0 mg/kg/injection, schedule: Q01DX Z (ip), vehicle: saline) 0 of 6; (dose: 200.0 mg/kg/injection, schedule: Q04DX003 (ip), vehicle: saline sonified) 1 of 6; (dose: 250.0 mg/kg/injection, schedule: Q01DX Z (ip), vehicle: saline) 0 of 6; (dose: 400.0 mg/kg/injection, schedule: Q04DX003 (ip), vehicle: saline sonified) 1 of 6. Besides, the survivor count (dose: 500.0 mg/kg/injection, schedule: Q01DX Z (ip), vehicle: saline) is listed as 0 of 6.

`Nc1cc(Nc2ccccc2)nc(N)n1`: the survivor count is reported as 6 of 6 (dose: 25.0 mg/kg/injection, schedule: Q01DX Z (ip), vehicle: methylcellulose (MC)); 6 of 6 (dose: 50.0 mg/kg/injection, schedule: Q01DX Z (ip), vehicle: methylcellulose (MC)); 2 of 6 (dose: 100.0 mg/kg/injection, schedule: Q01DX Z (ip), vehicle: methylcellulose (MC)); 0 of 6 (dose: 200.0 mg/kg/injection, schedule: Q01DX Z (ip), vehicle: methylcellulose (MC)).

For `CCOC(=O)Nc1cc(Cl)c([N+](=O)[O-])c(NC(=O)OCC)n1`, for the setting “dose: 400.0 mg/kg/injection, schedule: Q01DX001 (ip), vehicle: other”, the survivor count is 1 of 4.

As to `N#CC1C(=O)c2ccccc2C1=O`, the survivor count under setting [4] is 3 of 6 and the survivor count under setting [5] is 0 of 6.

As to `Cc1ccc2c[c]1[Hg][CH2]COS2(=O)=O`, the survivor count by setting is: (dose: 25.0 mg/kg/injection, schedule: Q04DX002 (ip), vehicle: Klucel (hydroxypropylcellulose) (HPC)) 2 of 2; (dose: 50.0 mg/kg/injection, schedule: Q04DX002 (ip), vehicle: Klucel (hydroxypropylcellulose) (HPC)) 3 of 3; under setting [6], 0 of 3; under setting [7], 0 of 3; under setting [8], 0 of 3.

Turning to `CN=C(NC)N(C)/N=C/C(C)=N/N(C)C(=NC)NC`, the survivor count runs as follows: (dose: 120.0 mg/kg/injection, schedule: Q01DX Z (ip), vehicle: methylcellulose (MC)) 4 of 6; (dose: 960.0 mg/kg/injection, schedule: Q01DX Z (oral), vehicle: methylcellulose (MC)) 3 of 6.

As for `Nc1ncnc2c1c(I)cn2C1OC(CO)C(O)C1O` (stereo not drawn), under “dose: 80.0 mg/kg/injection, schedule: Q01DX001 (ip), vehicle: saline”, the survivor count is on record as 0 of 6.

In the case of `CC[n+]1ccc(C)c2ccccc21`, the survivor count is, setting by setting: (dose: 100.0 mg/kg/injection, schedule: Q04DX002 (ip), vehicle: saline) 1 of 3 and 5 of 6; (dose: 200.0 mg/kg/injection, schedule: Q04DX002 (ip), vehicle: saline) 1 of 6 and 1 of 3; under setting [2], 0 of 3 and 0 of 6.

On to `CCCCCCCN(CCCCCCC)CC(O)c1cc2ccc(Cl)cc2c2cccnc12` (stereo not drawn), for which the survivor count by setting is: (dose: 200.0 mg/kg/injection, schedule: Q01DX009 (ip), vehicle: Klucel (hydroxypropylcellulose) (HPC)) 0 of 6; (dose: 400.0 mg/kg/injection, schedule: Q04DX003 (ip), vehicle: Klucel (hydroxypropylcellulose) (HPC)) 5 of 6.

Consider `O=[N+]([O-])c1ccccc1N=Nc1c(O)[nH]c2cccc(C(F)(F)F)c12`, for which the survivor count under setting [9] is given as 2 of 6.

As for `CCCCCCCCCCCCSC1=CC(=O)C=CC1=O`, the survivor count by setting is: (dose: 100.0 mg/kg/injection, schedule: Q01DX001 (ip), vehicle: saline) 3 of 6; under setting [9], 2 of 4; under setting [10], 0 of 6.

Consider `CCc1cccc(CC)c1NC(=O)CCl`, for which the survivor count (dose: 200.0 mg/kg/injection, schedule: Q04DX003 (ip), vehicle: Klucel (hydroxypropylcellulose) (HPC)) is 5 of 6.

With `CN(Cc1cnc2nc(N)nc(N)c2n1)c1c(F)cc(C(=O)NC(CCC(=O)O)C(=O)O)cc1F` (stereo not drawn), the T/C by setting is: (dose: 3.0 mg/kg/injection, schedule: Q01DX009 (ip), vehicle: sodium bicarbonate) 139 % of control; (dose: 6.0 mg/kg/injection, schedule: Q01DX009 (ip), vehicle: sodium bicarbonate) 142 % of control.

Regarding `CCCCCCCCC/C(=N\N=C(N)N)c1ccccc1`, the survivor count (dose: 100.0 mg/kg/injection, schedule: Q01DX Z (oral), vehicle: methylcellulose (MC)) is reported as 2 of 6 and the survivor count (dose: 200.0 mg/kg/injection, schedule: Q01DX Z (oral), vehicle: methylcellulose (MC)) is given as 3 of 6.

Regarding `Fc1ccccc1N=C=S`, under setting [11], the survivor count is listed as 0 of 6.

Consider `CC/C=C(\C)C1(CC)C(=O)N=C(N)NC1=O` (stereo not drawn), for which the survivor count under setting [3] was 1 of 6.

For the molecule `CC(=O)n1c(N)nc2ccccc21`, the survivor count (dose: 400.0 mg/kg/injection, schedule: Q01DX009 (ip), vehicle: Klucel (hydroxypropylcellulose) (HPC)) is reported as 5 of 6.

As for `CC1([N+](=O)[O-])COP(=O)(Nc2ccc(F)cc2)OC1` (stereo not drawn), for the setting “dose: 400.0 mg/kg/injection, schedule: Q01DX001 (ip), vehicle: carboxymethylcellulose (CMC)”, the survivor count was 0 of 4.

Consider `O=C(Cc1ccccc1)Nc1ccc(Nc2ccccc2)cc1`, for which, under setting [6], the survivor count was 3 of 3.

Consider `O=C1OC(c2ccc([N+](=O)[O-])cc2)=N/C1=C\c1ccc2c(c1)OCO2`, for which, under “dose: 200.0 mg/kg/injection, schedule: Q04DX002 (ip), vehicle: saline with Tween-80”, the survivor count was 3 of 3.

In the case of `Cc1nc2ccccc2c(=O)n1N`, under setting [10], the survivor count is reported as 0 of 6.

As for `Nc1ccc2ccccc2c1-c1c(N)ccc2ccccc12`, the survivor count (dose: 150.0 mg/kg/injection, schedule: Q04DX002 (ip), vehicle: saline with Tween-80) is reported as 3 of 3.

Consider `CC(=O)Oc1c(F)c(F)c(F)c(F)c1F`, for which the T/C (dose: 12.5 mg/kg/injection, schedule: Q04DX002 (ip), vehicle: saline with Tween-80) is 143 % of control.

As to `C[N+]1(C)C2CC(=O)CC1C1CC12` (stereo not drawn), the survivor count (dose: 400.0 mg/kg/injection, schedule: Q04DX003 (ip), vehicle: saline) is given as 4 of 6.

Turning to `O=C(COc1ccccc1[N+](=O)[O-])Nc1ccccc1C(=O)O`, the survivor count under setting [1] is given as 1 of 6.

In the case of `CC(C)CCCC(C)C1CCC2C3CC(O)C4=CC(O)CCC4(C)C3CCC12C` (stereo not drawn), under setting [11], the survivor count is 2 of 6.

`O=C1C=CC(=O)C2C3CC(C4OC34)C12` (stereo not drawn): the survivor count (dose: 200.0 mg/kg/injection, schedule: Q01DX009 (ip), vehicle: saline with Tween-80) is 6 of 6 and the survivor count (dose: 400.0 mg/kg/injection, schedule: Q01DX009 (ip), vehicle: saline with Tween-80) is 6 of 6.

Take `CN(C)CC(=O)c1ccc(Cl)cc1`: the survivor count (dose: 200.0 mg/kg/injection, schedule: Q01DX009 (ip), vehicle: saline) is 0 of 3.

Take `NC(CSS(=O)(=O)O)=NCCc1ccccn1`: the survivor count is given as 3 of 3 under setting [6] and 3 of 3 under setting [7].

Regarding `O=C(O)c1cc(CBr)cc(CBr)c1`, the survivor count is, setting by setting: (dose: 12.5 mg/kg/injection, schedule: Q01DX009 (ip), vehicle: saline with Tween-80) 0 of 6; (dose: 25.0 mg/kg/injection, schedule: Q01DX001 (ip), vehicle: saline with Tween-80) 1 of 6.

In the case of `CC(C)c1ccc(C(O)C2CC2)cc1` (stereo not drawn), the survivor count runs as follows: under setting [4], 6 of 6; under setting [5], 0 of 6.

Take `COC1OC2COc3ccccc3OC2C2C1N2C(C)=O` (stereo not drawn): under setting [8], the T/C is 128 % of control.

Turning to `COC1C=CC23c4cc5c(cc4C(O)OC2CN(C)C3C1)OCO5` (stereo not drawn), the survivor count was 0 of 6 under setting [9] and 0 of 6 under setting [10].

For the origin of these results see PubChem BioAssay AID248 (DTP/NCI, 2004).
